Patent US20250059232A1 (ENSOL BIOSCIENCES INC., priority 2021, published 2025)

Assay: peptide made by a vendor (Fmoc solid-phase peptide synthesis; H-Asp(OtBu)-2-ClTrt resin (0.63 to 0.67 mmol/g); Wang resin (0.55 mmol/g) for Comparative Example 1; HBTU (Comparative Example 1))
Settings: whole synthesis

Substance: Ac-QLHLD-OH
- crude HPLC purity (HPLC): 91.3% to 97.5%
- final HPLC purity (HPLC): 99.6%
- crude yield (deprotection peptide yield): 98.4%
